About 220 (0.063%) of roughly 350,000 compounds were called active. The inconclusive results got no clear call from the source; some entries with a clear call stand among them for comparison. Calls follow the shape of the dose curve; as a rule, active = well fitted activation curve with a large enough effect; inconclusive = small, poorly fitted or top-dose-only effect; inactive = no such curve, though single readings can be large or run the other way. Where the call is inconclusive, the potency comes from a doubtful curve fit.
assay: qHTS for Activators of Integrin-Mediated Alleviation for Muscular Dystrophy; conditions: alpha7betagal myoblasts, beta-gal FDG fluorescence, 48 h; activation: at 38.3 µM (top of the series); also: nearly all actives have a fitted effect of over 60% in size;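 as to activation: 100% = response of the positive control SU9516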
Method in brief: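 alpha7betagal+/- myoblasts (passage 13, 250/well) treated 48 h at 37C with compounds at 1:260 dilution of DMSO stock. Lysed, then beta-galactosidase activity read as FDG fluorescence (ex 480/em 540) after 30 min, with pre-read for autofluorescence.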
Potency is read from the fitted curve at half-maximal effect.

Question: Which Potency does the source give for COC(=O)NCC(c1ccc2c(c1)OCO2)N1CCN(c2ccc(OC)cc2)CC1 (stereo not drawn) here?
Answer: Its Potency is inconclusive: 28.2 µM [activator, single point].

Question: With CC1=C(C(=O)OCc2ccccc2)C(c2ccsc2)NC(=O)N1C (stereo not drawn) as the molecule, how does the Potency read?
Answer: The Potency was inconclusive: 2.51 µM [activator, partial curve, poor fit].

Question: With COc1ccc(NC(=O)Nc2cc(C)ccn2)cc1 as the molecule, how does the Potency read?
Answer: Its Potency is inconclusive: 28.2 µM [activator, single point].

Question: For COc1ccc(C/C(C)=N/NC(=O)C2COc3ccccc3O2)cc1 (stereo not drawn), which Potency is on record?
Answer: The Potency was inconclusive: 4.47 µM [activator, single point].

Question: For CCc1nn(CC(=O)Nc2ccc(Br)c(C)c2)c(=N)s1, which Potency is on record?
Answer: Its Potency is inconclusive: 6.31 µM [activator, partial curve, poor fit].

Question: For O=c1cc(C(F)(F)F)[nH]c2c(OC(F)(F)F)cccc12, which Potency is on record?
Answer: The Potency was inconclusive: 4.47 µM [activator, single point].

Question: With Cc1[nH]c(=O)c(Cc2ccccc2)c(O)c1C#N as the molecule, how does the Potency read?
Answer: Its Potency is inconclusive: 28.2 µM [activator, single point].

Question: With CCOc1ccc(NC(=O)CSc2nnc(NC(=O)C3CC3)s2)cc1 as the molecule, how does the Potency read?
Answer: Its Potency is inconclusive: 3.98 µM [activator, partial curve, poor fit].

Question: With COC(=O)c1ccc(=O)n(CC(=O)c2ccc(Cl)cc2)c1 as the molecule, how does the Potency read?
Answer: Its Potency is inconclusive: 4.47 µM [activator, single point].

Question: Which “activation” value does the source give for O=C(Nc1ccc(N2CCCC2)c(Cl)c1)c1ccc2c(c1)OCCO2 here?
Answer: Its value is inactive: 3.35%.

Question: For CCC(C)/C(C)=N/NC(=O)CSc1nc2ccccc2[nH]1 (stereo not drawn), which Potency is on record?
Answer: The Potency was inconclusive: 11.2 µM [activator, partial curve, poor fit].

Question: Which Potency does the source give for CCCCCn1c(=O)[nH]c2cc(C(=O)Nc3ccc(OC)cc3)ccc2c1=O here?
Answer: Its Potency is inconclusive: 7.08 µM [activator, partial curve, poor fit].

Question: With COc1ccc(C(=O)N2CCN(S(=O)(=O)N3CCOCC3)CC2)cc1OC as the molecule, how does the activation read?
Answer: Its activation is inconclusive: 7.09% [activator].

Question: For COc1ccccc1NC(=O)CCCc1c[nH]c2ccccc12, which Potency is on record?
Answer: Its Potency is inconclusive: 10 µM [activator, partial curve].

Question: Which activation does the source give for COC(=O)CNC(c1ccccc1Cl)c1cc(Br)ccc1NC(=O)CCN1CCOCC1 (stereo not drawn) here?
Answer: Its activation is inconclusive: -56.8% [activator].

Question: With CC(=C/C(=O)O)/C=C/c1ccc(Cl)o1 as the molecule, how does the “activation” value read?
Answer: Its value is inactive: -15.3%.

Question: For Cc1cccc(CCNC(=O)C2CCN(S(=O)(=O)N3CCOCC3)CC2)c1, which Potency is on record?
Answer: Its Potency is inconclusive: 10 µM [activator, single point].

Question: With O=C(Cn1c(=O)c2cccn2c2cccnc21)NCCCN1CCN(c2ccc(F)cc2)CC1 as the molecule, how does the Potency read?
Answer: Its Potency is inconclusive: 5.01 µM [activator, single point].

Question: With CCCN(CC(=O)Nc1ccccc1OC)C(=O)c1ccc(S(=O)(=O)Nc2ccccc2OC)cc1 as the molecule, how does the Potency read?
Answer: The Potency was inconclusive: 28.2 µM [activator, single point].

Question: Which “activation” value does the source give for O=C(c1nc2nc(-c3cccs3)cc(C(F)(F)F)n2n1)N1CCN(Cc2ccccc2)CC1 here?
Answer: Its value is inactive: 17.4%.

Question: Which Potency does the source give for S=c1[nH]nc(-c2ccncc2)n1/N=C/c1ccccc1Cl here?
Answer: Its Potency is inconclusive: 2.82 µM [activator, single point].

Question: With CC1=NOC(=O)/C1=C\c1ccc(-c2ccc(Br)cc2C(=O)O)o1 as the molecule, how does the “activation” value read?
Answer: Its value is inactive: 4.44%.

Question: For CCOC(=O)c1[nH]c(C)c(C(=O)NCCN2CCOCC2)c1C, which Potency is on record?
Answer: The Potency was inconclusive: 5.01 µM [activator, single point].

Question: For CCc1ccc(/C=C/c2c[nH]c3ccccc23)[n+](CC)c1, which activation is on record?
Answer: The activation was inconclusive: -43.8% [activator].

Question: For COCCCN1C(=O)C(=O)/C(=C(/O)c2ccc(S(=O)(=O)N3CCOCC3)cc2)C1c1ccc(Cl)cc1 (stereo not drawn), which Potency is on record?
Answer: Its Potency is inconclusive: 10 µM [activator, single point].

Question: With O=C(c1ccc2ccccc2c1)C1CCCN(C(=O)CN2C(=O)CSC2=O)C1 (stereo not drawn) as the molecule, how does the “activation” value read?
Answer: Its value is inactive: -14.7%.

Question: With O=[N+]([O-])c1cc(Cl)cc(/C=N/NC(=S)Nc2ccc(S(=O)(=O)N3CCOCC3)cc2)c1O as the molecule, how does the “activation” value read?
Answer: The value was inactive: 7.09%.

Question: For COc1ccccc1-c1ccc(/C=C2/C=C(C)OC2=O)o1, which Potency is on record?
Answer: Its Potency is inconclusive: 3.55 µM [activator, single point].

Question: Which Potency does the source give for COc1ccc(-n2c(SCC(=O)NCc3ccco3)nc3sc4c(c3c2=O)CCN(C)C4)cc1 here?
Answer: Its Potency is inconclusive: 1.58 µM [activator, partial curve, poor fit].

Question: With COc1ccc(NC(=O)CS(=O)c2ccc(Br)cc2)cc1 (stereo not drawn) as the molecule, how does the Potency read?
Answer: Its Potency is inconclusive: 28.2 µM [activator, single point].

Question: Which “activation” value does the source give for O=C(c1ccc2c3c(cccc13)CC2)C1CCCN(Cc2ccncc2)C1 (stereo not drawn) here?
Answer: Its value is inactive: -45.9%.

Question: With c1ccc(Cn2ncc3c(N4CCN(C(c5ccccc5)c5ccccc5)CC4)ncnc32)cc1 as the molecule, how does the Potency read?
Answer: The Potency was inconclusive: 11.2 µM [activator, partial curve, poor fit].

Question: For Cc1nn(C)c(C)c1NC(=O)COc1ccc(Cl)cc1, which Potency is on record?
Answer: Its Potency is inconclusive: 2.82 µM [activator, single point].

Question: With Nc1ccc2nc(-c3ccccc3)sc2c1 as the molecule, how does the “activation” value read?
Answer: Its value is inactive: 2.89%.

Question: Which Potency does the source give for CCc1cccc(C)c1NC(=O)c1ccccc1 here?
Answer: The Potency was inconclusive: 3.55 µM [activator, full curve, poor fit].

Question: For CCc1nnc(NC(=O)CSc2nc3cc(OC)c(OC)cc3cc2C)s1, which Potency is on record?
Answer: Its Potency is inconclusive: 28.2 µM [activator, single point].

Question: For CCC1=[N+](CC(=O)c2ccc(C)cc2)CCn2cccc21, which Potency is on record?
Answer: The Potency was inconclusive: 5.01 µM [activator, single point].

Question: Which Potency does the source give for COc1ccc(OCC(=O)NC2CCCc3ccccc32)cc1 (stereo not drawn) here?
Answer: Its Potency is inconclusive: 28.2 µM [activator, single point].

Question: With CCOc1cccc(-c2nnc(SCC(=O)NC3CC3)n2C)c1 as the molecule, how does the Potency read?
Answer: The Potency was inconclusive: 3.55 µM [activator, partial curve].

Question: Which “activation” value does the source give for Cc1cc(C)cc(-n2ccnc2SCC(=O)O)c1 here?
Answer: The value was inactive: 13.4%.

Question: Which “activation” value does the source give for O=C/C(=C\Nc1ccc(S(=O)(=O)CCO)cc1)c1nc2cc(Cl)ccc2o1 here?
Answer: The value was inactive: 11.7%.

Question: With CCOC(=O)N1CCC(Nc2c([N+](=O)[O-])cc(C(=O)O)cc2[N+](=O)[O-])CC1 as the molecule, how does the Potency read?
Answer: The Potency was inconclusive: 5.01 µM [activator, single point].

Question: Which Potency does the source give for CCOc1ccc(NC(=O)C(C)C(Cc2ccc(C)cc2)C(=O)O)cc1 (stereo not drawn) here?
Answer: The Potency was inconclusive: 2.82 µM [activator, partial curve, poor fit].
